Data: publication PMC12365319
No constants are given. Whether binding was seen depends on the method and setting. Binding seen in cells or lysates may run through a third protein. Some binding calls cover weakened binding; strength is not graded here.

Sequences of proteins named here, by UniProt entry; tags and fusion partners are left off.
UniProt Q6URW6: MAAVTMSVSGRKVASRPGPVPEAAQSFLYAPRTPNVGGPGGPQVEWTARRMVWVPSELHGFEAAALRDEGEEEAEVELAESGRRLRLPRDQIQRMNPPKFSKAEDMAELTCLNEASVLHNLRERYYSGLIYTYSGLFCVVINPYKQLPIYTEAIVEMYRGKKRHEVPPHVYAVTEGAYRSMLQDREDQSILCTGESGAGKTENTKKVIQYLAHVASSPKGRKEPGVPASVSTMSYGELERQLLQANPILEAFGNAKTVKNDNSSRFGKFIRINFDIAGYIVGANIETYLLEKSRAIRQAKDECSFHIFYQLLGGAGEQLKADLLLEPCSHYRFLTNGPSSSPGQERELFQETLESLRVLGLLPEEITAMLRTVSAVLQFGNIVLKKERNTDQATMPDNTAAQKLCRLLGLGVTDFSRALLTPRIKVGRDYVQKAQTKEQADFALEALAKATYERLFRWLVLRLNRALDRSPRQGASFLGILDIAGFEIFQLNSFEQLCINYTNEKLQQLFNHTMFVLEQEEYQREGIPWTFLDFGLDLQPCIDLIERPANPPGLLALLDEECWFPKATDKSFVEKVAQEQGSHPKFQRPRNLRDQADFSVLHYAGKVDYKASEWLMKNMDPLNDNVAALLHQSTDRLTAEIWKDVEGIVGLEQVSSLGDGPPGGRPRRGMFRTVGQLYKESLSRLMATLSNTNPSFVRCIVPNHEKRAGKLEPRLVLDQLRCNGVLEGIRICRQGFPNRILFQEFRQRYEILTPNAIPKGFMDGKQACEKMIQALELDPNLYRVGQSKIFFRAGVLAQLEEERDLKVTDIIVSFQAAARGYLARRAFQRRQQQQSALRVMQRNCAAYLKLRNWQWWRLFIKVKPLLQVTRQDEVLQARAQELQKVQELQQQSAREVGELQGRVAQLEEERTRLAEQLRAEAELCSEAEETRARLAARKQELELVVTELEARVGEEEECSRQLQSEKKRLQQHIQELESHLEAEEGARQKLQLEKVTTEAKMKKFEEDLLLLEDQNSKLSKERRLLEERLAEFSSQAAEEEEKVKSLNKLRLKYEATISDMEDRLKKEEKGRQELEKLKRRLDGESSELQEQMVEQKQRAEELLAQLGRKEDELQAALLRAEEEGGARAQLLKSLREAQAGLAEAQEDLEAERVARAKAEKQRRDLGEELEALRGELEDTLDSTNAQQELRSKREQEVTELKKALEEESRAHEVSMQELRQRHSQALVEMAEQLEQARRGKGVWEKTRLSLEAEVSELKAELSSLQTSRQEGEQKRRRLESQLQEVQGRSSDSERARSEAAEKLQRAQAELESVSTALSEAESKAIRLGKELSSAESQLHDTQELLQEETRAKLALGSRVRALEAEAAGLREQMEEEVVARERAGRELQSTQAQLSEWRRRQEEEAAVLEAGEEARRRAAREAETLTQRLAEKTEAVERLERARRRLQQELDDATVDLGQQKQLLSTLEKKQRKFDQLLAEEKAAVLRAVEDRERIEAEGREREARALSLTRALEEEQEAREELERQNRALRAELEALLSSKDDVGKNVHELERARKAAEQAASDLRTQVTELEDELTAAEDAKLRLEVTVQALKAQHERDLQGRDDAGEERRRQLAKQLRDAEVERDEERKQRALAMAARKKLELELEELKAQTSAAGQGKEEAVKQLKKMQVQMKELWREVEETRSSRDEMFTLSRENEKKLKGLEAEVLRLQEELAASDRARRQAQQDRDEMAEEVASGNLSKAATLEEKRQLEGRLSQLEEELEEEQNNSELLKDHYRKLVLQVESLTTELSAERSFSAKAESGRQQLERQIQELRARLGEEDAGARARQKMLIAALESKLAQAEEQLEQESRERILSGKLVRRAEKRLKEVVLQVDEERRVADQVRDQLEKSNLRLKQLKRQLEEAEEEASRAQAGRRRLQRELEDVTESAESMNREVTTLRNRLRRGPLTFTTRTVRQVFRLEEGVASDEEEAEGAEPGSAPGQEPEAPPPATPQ

Molecular target: T1, F-box/LRR-repeat protein 12 (mouse (endogenous in SIM-A9)) (UniProt Q9EPX5)
T1 sequence: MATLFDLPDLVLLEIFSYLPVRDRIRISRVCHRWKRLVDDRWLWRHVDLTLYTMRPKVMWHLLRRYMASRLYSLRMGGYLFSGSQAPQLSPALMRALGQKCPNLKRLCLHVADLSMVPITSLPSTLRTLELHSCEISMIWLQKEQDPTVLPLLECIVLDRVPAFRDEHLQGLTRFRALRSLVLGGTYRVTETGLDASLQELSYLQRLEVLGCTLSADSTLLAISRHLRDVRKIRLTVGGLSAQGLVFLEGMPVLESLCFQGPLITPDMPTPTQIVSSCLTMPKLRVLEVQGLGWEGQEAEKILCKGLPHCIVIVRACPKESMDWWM
Test: co-IP; whole-cell lysates of WT and Fbxl12-/- SIM-A9 microglia incubated with an antibody overnight at 4 C, then Dynabeads 3 h at 4 C; immunoblot

Myosin heavy chain 14 (from UniProt Q6URW6 1-2000)
binding: binds
